Measured values reported in article PMC8503962.
Like-named read-outs stand apart in the source and are kept apart here. These are yes or no findings as the source states them, for the method shown. Binding seen in cells or lysates may run through a third protein. Some binding calls cover weakened binding; strength is not graded here.

Chains of the proteins cited; added tags and fusions are not shown.
UniProt P08413: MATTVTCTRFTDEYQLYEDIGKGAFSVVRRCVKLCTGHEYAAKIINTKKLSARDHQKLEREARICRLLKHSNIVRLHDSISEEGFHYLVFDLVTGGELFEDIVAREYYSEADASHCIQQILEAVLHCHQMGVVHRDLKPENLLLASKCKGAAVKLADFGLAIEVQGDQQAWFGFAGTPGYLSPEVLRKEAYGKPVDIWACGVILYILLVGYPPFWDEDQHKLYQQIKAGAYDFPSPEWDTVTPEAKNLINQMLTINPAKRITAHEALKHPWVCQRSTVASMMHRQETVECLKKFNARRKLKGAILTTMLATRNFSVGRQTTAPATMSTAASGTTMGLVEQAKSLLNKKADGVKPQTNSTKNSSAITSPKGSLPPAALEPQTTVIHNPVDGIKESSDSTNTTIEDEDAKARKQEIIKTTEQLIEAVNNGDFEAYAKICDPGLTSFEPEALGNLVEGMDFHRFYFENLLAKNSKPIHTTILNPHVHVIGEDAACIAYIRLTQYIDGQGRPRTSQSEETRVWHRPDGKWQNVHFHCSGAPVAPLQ
UniProt P11275: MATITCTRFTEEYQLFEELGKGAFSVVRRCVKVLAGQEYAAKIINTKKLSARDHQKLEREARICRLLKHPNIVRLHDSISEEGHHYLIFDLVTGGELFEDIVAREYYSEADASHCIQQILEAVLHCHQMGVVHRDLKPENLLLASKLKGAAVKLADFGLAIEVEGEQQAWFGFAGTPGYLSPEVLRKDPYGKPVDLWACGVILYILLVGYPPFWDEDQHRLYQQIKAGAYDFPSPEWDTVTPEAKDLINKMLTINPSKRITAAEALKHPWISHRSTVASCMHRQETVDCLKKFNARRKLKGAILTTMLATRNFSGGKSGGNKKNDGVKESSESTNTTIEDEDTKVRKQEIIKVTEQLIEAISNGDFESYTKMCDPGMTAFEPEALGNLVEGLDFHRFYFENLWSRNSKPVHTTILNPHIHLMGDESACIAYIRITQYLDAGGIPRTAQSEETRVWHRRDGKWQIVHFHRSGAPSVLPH

T1: diacylglycerol lipase-α (rat (endogenous in NAc core tissue)) (UniProt Q5YLM1)
T1 sequence: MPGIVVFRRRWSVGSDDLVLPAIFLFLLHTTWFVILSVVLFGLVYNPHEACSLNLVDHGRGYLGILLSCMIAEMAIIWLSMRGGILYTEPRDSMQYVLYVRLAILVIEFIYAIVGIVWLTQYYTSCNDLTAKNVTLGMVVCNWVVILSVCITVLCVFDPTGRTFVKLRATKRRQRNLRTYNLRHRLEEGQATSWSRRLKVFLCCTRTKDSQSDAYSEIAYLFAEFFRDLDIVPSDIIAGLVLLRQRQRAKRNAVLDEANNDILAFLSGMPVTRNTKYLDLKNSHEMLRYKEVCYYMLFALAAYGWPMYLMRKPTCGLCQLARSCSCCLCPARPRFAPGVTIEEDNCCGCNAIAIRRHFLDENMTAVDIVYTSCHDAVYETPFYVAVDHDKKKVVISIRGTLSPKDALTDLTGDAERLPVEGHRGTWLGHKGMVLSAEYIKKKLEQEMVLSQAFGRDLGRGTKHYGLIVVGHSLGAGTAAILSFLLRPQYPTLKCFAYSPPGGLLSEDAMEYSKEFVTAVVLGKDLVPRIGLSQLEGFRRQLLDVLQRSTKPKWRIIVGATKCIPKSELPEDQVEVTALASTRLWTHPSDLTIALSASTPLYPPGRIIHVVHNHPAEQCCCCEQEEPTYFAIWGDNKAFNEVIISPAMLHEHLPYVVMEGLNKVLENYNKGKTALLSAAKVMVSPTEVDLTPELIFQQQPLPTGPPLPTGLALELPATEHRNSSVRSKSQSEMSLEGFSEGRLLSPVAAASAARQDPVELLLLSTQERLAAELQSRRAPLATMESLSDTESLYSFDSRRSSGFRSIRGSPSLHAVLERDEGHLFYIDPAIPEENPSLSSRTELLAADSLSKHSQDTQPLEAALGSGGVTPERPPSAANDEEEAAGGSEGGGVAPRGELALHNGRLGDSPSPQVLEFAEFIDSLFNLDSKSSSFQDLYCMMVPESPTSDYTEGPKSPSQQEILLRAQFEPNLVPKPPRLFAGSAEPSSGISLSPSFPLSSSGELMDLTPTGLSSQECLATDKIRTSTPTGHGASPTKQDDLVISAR


What was measured:
[1] = biological target: T1, diacylglycerol lipase-α (rat (endogenous in NAc core tissue)); test: co-IP; DGL immunoprecipitated with DGL-α antibody on protein A/G agarose from 100 μg rat NAc core homogenate (overnight, 4°C; lysis buffer 25 mM HEPES pH 7.4, 500 mM NaCl, 0.1% NP-40, 1% Triton, 0.5% deoxycholate); bound fraction immunoblotted; drug-naive rats and rats on WD55 after saline or cocaine self-administration
[2] = biological target: T1, diacylglycerol lipase-α (rat (endogenous in NAc core tissue)); test: as above; remark: listed apart in the source

binding [1] | binding [2] | Molecule
binds |  | phosphorylated CaMKIIβ (from UniProt P08413 1-542) (enzyme)
binds |  | Ca2+/calmodulin-dependent protein kinase IIα (total) (from UniProt P11275 1-478) (enzyme)
binds |  | Ca2+/calmodulin-dependent protein kinase IIβ (total) (from UniProt P08413 1-542) (enzyme)
binds |  | phosphorylated (Thr286) CaMKIIα (from UniProt P11275 1-478) (enzyme)
 | binds | Homer2 (protein, UniProt O88801 1-354) MGEQPIFTTRAHVFQIDPSTKKNWVPASKQAVTVSYFYDVTRNSYRIISVDGAKVIINSTITPNMTFTKTSQKFGQWADSRANTVFGLGFSSEQQLTKFAEKFQEVREAARLARDKSQEKIETSSNHSQESGCETPSSTQASSVNGTDDEKASHASPADTHLKSENDKLKIALTQSAANVKKWEIELQTLRESNARLTTALQESAASVEQWKRQFSICRDENDRLRSKIEELEEQCGEINREKEKNTQLKRRIEELESEVREKEMELKDLRKQSEIIPQLMSECEYVSEKLEAAERDNQNLEDKVRSLKTDIEESKYRQRHLKGELKSFLEVLDGKIDDLHDFRRGLSKLGTDN
